Experimental data from the supplement of paper PMC12067093, “Discovery and optimisation of a covalent ligand for TRIM25 and its application to targeted protein ubiquitination” (Chemical Science, 2025).
This is one part of the list.

By UniProt entry, the sequences of proteins in these tests, tags left out. Where a name states a change or a piece, a line headed by the entry shows the natural chain unless it says otherwise.
UniProt Q96IY1: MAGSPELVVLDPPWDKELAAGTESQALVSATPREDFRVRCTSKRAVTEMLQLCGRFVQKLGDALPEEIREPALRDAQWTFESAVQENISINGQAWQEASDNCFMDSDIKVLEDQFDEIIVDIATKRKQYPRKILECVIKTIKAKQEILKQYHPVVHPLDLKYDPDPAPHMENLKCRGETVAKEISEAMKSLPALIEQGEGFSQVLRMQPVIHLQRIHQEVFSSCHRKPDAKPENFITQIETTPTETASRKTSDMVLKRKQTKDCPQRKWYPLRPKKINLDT
UniProt P46459: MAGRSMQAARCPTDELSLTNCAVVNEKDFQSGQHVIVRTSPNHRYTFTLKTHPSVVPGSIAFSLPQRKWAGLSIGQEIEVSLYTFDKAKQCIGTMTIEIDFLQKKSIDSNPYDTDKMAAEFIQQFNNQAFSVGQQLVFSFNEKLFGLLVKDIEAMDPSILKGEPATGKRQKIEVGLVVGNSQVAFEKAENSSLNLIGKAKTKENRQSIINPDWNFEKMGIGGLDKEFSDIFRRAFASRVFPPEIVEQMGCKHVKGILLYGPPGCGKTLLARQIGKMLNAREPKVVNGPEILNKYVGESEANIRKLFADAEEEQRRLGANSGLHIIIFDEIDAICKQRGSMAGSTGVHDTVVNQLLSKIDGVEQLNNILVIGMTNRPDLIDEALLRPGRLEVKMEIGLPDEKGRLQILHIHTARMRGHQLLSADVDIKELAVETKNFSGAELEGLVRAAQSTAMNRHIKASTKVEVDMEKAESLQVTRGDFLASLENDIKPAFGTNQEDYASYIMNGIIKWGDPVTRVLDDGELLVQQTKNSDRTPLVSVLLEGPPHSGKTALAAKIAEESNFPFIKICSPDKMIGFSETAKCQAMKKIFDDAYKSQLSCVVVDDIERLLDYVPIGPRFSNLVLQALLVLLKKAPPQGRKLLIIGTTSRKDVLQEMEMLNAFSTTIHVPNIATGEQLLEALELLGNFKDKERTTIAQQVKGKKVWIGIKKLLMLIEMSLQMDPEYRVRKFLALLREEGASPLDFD
UniProt Q9H0G5: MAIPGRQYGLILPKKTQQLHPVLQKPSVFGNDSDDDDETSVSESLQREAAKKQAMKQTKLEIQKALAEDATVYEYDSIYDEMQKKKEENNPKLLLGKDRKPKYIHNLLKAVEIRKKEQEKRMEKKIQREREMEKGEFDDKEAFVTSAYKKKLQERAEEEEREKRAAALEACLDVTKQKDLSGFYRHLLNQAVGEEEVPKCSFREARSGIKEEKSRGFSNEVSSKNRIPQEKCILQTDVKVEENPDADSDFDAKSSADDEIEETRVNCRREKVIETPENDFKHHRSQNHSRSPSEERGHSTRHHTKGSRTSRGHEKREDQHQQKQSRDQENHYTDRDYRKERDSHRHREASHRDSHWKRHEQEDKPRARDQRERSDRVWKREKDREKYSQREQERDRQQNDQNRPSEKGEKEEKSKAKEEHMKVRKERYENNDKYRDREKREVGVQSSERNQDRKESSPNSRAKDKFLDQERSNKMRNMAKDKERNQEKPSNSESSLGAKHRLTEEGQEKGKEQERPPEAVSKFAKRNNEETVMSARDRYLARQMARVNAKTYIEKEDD
UniProt Q86UT6, whole entry, looked up: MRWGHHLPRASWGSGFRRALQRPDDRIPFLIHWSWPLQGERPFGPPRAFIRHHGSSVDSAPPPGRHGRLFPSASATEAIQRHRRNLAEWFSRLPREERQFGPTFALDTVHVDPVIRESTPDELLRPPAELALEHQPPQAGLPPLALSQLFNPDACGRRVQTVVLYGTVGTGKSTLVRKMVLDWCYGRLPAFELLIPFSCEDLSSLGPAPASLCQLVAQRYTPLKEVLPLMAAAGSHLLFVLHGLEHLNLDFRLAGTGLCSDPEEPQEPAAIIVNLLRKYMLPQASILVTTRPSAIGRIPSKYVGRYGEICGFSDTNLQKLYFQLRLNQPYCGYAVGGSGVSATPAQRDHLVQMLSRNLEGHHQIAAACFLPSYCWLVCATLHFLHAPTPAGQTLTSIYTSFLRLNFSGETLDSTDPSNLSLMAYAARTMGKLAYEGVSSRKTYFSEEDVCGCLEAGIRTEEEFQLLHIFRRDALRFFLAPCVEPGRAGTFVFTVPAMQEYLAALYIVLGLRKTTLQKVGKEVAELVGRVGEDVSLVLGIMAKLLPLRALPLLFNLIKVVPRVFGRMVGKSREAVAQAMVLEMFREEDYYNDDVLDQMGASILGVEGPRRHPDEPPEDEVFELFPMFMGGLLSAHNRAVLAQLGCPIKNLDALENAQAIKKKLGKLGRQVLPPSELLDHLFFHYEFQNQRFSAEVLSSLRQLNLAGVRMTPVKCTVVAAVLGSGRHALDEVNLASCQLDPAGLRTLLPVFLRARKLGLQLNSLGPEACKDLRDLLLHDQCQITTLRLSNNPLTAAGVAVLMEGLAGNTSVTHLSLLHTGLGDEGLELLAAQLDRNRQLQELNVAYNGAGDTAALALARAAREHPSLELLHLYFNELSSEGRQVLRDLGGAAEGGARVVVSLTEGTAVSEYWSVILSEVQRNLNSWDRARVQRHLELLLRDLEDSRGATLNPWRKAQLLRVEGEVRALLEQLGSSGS
UniProt Q3KNT7: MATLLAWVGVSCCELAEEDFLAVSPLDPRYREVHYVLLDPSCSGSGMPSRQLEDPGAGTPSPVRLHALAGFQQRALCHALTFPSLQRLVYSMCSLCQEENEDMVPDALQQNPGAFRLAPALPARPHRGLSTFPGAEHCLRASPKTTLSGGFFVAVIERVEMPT
UniProt Q9BYT8, whole entry, looked up: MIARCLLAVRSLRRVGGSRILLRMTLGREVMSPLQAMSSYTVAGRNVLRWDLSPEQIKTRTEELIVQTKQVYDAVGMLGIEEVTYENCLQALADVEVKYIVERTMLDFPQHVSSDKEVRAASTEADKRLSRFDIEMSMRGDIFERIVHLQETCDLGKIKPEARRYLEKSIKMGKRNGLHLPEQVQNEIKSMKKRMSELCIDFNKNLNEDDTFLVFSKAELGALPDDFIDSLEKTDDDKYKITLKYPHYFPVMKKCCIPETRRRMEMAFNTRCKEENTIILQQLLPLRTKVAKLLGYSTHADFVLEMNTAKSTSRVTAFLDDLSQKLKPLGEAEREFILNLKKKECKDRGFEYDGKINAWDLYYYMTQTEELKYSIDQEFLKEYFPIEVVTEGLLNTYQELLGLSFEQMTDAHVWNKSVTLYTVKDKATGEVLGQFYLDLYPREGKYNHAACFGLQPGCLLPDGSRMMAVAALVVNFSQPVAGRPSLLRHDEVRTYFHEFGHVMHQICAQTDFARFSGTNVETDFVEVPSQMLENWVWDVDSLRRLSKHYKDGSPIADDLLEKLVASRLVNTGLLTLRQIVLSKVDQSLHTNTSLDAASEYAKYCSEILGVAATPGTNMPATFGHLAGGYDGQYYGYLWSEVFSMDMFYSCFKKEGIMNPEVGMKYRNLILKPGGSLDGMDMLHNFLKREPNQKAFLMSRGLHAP
UniProt Q15738: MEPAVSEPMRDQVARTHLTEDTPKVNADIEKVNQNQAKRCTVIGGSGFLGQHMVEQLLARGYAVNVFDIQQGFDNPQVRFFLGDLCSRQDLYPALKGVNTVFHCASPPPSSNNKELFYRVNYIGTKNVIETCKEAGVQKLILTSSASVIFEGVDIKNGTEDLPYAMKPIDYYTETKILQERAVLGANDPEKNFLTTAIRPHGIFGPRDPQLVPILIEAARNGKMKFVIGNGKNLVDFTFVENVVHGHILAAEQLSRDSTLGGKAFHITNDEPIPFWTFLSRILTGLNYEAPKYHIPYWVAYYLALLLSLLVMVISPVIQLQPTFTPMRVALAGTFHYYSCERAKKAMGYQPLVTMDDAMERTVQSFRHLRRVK
UniProt Q8TCD5: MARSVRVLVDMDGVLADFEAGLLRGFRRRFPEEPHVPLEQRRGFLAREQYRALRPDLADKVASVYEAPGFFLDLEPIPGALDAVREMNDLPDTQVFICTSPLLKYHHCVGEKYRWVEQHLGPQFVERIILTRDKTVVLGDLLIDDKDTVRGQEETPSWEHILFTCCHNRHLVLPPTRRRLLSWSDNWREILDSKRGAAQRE
UniProt P13056: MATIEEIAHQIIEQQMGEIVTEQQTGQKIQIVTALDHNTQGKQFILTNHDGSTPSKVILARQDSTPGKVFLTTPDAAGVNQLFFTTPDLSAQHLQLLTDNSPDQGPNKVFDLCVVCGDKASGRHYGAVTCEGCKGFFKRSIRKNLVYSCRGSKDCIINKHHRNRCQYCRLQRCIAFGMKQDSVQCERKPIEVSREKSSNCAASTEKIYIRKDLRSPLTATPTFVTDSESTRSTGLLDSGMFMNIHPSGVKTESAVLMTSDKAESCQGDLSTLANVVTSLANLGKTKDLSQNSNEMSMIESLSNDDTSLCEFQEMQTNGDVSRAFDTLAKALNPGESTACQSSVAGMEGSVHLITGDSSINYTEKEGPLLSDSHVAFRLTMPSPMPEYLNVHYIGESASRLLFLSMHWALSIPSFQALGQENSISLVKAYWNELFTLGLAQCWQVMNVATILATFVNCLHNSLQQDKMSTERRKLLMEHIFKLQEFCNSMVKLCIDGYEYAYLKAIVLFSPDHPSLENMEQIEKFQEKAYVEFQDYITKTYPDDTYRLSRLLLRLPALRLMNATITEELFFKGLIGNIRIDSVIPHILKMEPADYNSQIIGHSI
UniProt Q9NX02: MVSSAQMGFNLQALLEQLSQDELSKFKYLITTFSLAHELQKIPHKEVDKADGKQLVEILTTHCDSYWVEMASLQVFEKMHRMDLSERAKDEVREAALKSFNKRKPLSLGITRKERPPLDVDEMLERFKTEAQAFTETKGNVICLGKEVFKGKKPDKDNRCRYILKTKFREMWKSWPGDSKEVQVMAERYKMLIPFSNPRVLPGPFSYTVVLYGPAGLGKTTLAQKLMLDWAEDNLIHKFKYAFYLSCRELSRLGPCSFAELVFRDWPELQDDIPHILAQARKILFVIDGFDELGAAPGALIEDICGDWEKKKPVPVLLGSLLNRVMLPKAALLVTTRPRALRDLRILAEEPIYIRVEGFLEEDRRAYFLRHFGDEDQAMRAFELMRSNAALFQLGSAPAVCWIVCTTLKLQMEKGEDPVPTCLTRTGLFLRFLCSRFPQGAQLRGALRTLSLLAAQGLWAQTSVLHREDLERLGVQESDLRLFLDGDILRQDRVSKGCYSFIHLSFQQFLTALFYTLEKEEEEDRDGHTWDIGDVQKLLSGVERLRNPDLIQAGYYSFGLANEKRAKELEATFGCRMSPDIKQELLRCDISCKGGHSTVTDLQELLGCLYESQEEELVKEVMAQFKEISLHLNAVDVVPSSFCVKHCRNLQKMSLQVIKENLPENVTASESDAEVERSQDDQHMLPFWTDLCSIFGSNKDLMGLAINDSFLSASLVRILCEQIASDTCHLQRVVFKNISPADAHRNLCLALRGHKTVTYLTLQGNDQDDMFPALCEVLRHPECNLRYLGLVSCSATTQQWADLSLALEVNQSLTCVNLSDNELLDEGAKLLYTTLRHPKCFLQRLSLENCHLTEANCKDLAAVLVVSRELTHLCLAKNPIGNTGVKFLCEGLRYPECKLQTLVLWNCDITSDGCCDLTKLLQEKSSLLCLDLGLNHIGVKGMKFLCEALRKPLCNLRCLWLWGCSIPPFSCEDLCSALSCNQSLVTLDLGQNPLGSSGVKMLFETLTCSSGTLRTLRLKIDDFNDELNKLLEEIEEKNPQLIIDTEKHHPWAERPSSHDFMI
UniProt Q5C9Z4: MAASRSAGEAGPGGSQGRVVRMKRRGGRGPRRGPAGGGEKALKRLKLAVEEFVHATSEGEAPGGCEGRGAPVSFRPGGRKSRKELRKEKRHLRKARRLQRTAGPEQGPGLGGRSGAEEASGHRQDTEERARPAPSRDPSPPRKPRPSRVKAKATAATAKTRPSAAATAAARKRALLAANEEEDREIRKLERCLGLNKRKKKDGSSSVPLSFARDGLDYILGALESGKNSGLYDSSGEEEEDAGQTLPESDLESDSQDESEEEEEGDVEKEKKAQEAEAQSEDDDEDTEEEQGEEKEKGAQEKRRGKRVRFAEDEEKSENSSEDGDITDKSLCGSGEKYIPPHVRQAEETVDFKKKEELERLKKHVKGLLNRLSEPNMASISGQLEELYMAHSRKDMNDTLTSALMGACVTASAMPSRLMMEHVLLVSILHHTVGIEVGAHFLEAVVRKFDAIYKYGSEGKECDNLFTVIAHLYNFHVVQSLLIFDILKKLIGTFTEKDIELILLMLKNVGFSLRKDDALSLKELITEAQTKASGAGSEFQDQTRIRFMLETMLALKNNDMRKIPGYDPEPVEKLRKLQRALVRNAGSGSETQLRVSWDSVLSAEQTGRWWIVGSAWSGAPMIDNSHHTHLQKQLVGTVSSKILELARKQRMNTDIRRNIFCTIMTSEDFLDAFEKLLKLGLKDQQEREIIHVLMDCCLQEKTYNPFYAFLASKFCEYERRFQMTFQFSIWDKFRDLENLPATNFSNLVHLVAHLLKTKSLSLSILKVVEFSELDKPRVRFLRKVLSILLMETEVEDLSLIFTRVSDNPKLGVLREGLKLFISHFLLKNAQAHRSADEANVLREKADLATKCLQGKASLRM
UniProt Q9NPE3: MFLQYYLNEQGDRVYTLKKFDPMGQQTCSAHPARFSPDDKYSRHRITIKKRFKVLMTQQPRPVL

Compound: CC1Cc2ccccc2N1C(=O)C1CCCN(C1)C(=O)CCl (mixture of isomers) [TRIM25 ligand 11 (diastereomer mixture)]
Test: probe-labelled cysteine peptide fold change vs DMSO (competition) (log2 fold change); higher = less target engagement (more negative = stronger competition)
Details: THP-1, incubation time: 4 h
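Also: competitive chemoproteomic profiling in live THP-1 cells with an iodoacetamide desthiobiotin (IA-DTB) probe, comparing probe-labelled peptide intensities in compound-treated cells against DMSO-treated controls.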

Target | probe-labelled cysteine peptide fold change (10 µM) | probe-labelled cysteine peptide fold change (50 µM)
NMNAT1_Q9HAN9_111_LEASDCDHQQNSPTLERPGR (UniProt Q9HAN9) | -0.0255 | -0.347
NSMAF_Q92636_803_EGTVNIWDLTTATLMHQIPCHSGIVCDTAFSPDSR (UniProt Q92636) | 0.146 | 0.234
NSL1_Q96IY1_136_ILECVIK (UniProt Q96IY1) | 0.0522 | 0.0516
NSF_P46459_21_CPTDELSLTNCAVVNEK (UniProt P46459) | -0.046 | -0.0309
NSRP1_Q9H0G5_232_CILQTDVK (UniProt Q9H0G5) | 0.167 | -0.0939
NOL4L_Q96MY1_148_TEVSGCPEDLTVGR (UniProt Q96MY1) | -0.279 | -0.0704
NLRX1_Q86UT6_481_FFLAPCVEPGR (UniProt Q86UT6) | 0.302 | 0.485
NSUN5P1_Q3KNT7_77_ALCHALTFPSLQR (UniProt Q3KNT7) | -0.17 | -0.0172
NMD3_Q96D46_71_YFQPPGTWIQCALESR (UniProt Q96D46) | 0.191 | 0.0902
NONO_Q15233_145_FACHSASLTVR (UniProt Q15233) | 0.123 | 0.0369
NLN_Q9BYT8_458_YNHAACFGLQPGCLLPDGSR (UniProt Q9BYT8) | 0.0507 | 0.016
NMD3_Q96D46_383_THLGHLLNPGDLVLGFDLANCNLNDEHVNK (UniProt Q96D46) | -0.0379 | -0.171
NSDHL_Q15738_40_RCTVIGGSGFLGQHMVEQLLAR (UniProt Q15738) | -0.231 | 0.024
NT5DC1_Q5TFE4_10+22_AQHFSLAACDVVGFDLDHTLCR (UniProt Q5TFE4) | 0.0181 | 0.119
NT5C_Q8TCD5_166_GQEETPSWEHILFTCCHNR (UniProt Q8TCD5) | -0.15 | -0.107
NSF_P46459_91_QCIGTMTIEIDFLQK (UniProt P46459) | 0.0636 | 0.14
NR2C1_P13056_185_QDSVQCER (UniProt P13056) | 0.0182 | -0.0493
NLRP2_Q9NX02_692_SQDDQHMLPFWTDLCSIFGSNK (UniProt Q9NX02) | -0.0737 | -0.189
NOTCH2_Q04721_364_VASFSCMCPEGK (UniProt Q04721) | -0.0149 | -0.178

Target | probe-labelled cysteine peptide fold change (10 µM) | probe-labelled cysteine peptide fold change (50 µM)
NSL1_Q96IY1_53_RAVTEMLQLCGR (UniProt Q96IY1) | -0.194 | 0.0899
NPHP4_O75161_56_QGVLEVLSEVECHLR (UniProt O75161) | 0.245 | 0.0593
NRDC_O43847_620_ANLVLLSGANEGKCDLK (UniProt O43847) | -0.523 | -0.114
NPEPL1_Q8NDH3_189_IVDTPCNEMNTDTFLEEINK (UniProt Q8NDH3) | -0.0982 | 0.0945
NSUN4_Q96CB9_258_VLVDVPCTTDR (UniProt Q96CB9) | -0.234 | -0.0205
NLE1_Q9NVX2_216_WITGLSWEPLHANPECR (UniProt Q9NVX2) | 0.0997 | 0.201
NOM1_Q5C9Z4_696_EIIHVLMDCCLQEK (UniProt Q5C9Z4) | 0.174 | 0.251
NSD2_O96028_1102_KGEFVNEYVGELIDEEECMAR (UniProt O96028) | -0.163 | -0.0932
NSF_P46459_599_SQLSCVVVDDIER (UniProt P46459) | 0.148 | -0.0494
NSMCE2_Q96MF7_215_AYCPQIGCSHTDIR (UniProt Q96MF7) | 0.171 | -0.112
NT5C_Q8TCD5_98_EMNDLPDTQVFICTSPLLK (UniProt Q8TCD5) | -0.0445 | -0.197
NLRX1_Q86UT6_259_LAGTGLCSDPEEPQEPAAIIVNLLR (UniProt Q86UT6) | 0.274 | -0.746
NPC2_P61916_42+47_EVNVSPCPTQPCQLSK (UniProt P61916) | 0.13 | 0.0977
NNT_Q13423_1073_TCDALQAK (UniProt Q13423) | -0.0433 | -0.145
NOL6_Q9H6R4_777_LAELLTQQHGLQCR (UniProt Q9H6R4) | 0.0373 | 0.134
NSDHL_Q15738_40_CTVIGGSGFLGQHMVEQLLAR (UniProt Q15738) | 0.0458 | -0.189
NOP10_Q9NPE3_28_KFDPMGQQTCSAHPAR (UniProt Q9NPE3) | -0.0253 | -0.279
NSD3_Q9BZ95_173_ELFESSLCGDLLNEVQASEHTK (UniProt Q9BZ95) | 0.000136 | -0.215
NOL7_Q9UMY1_149_KNEDCEK (UniProt Q9UMY1) | -0.0444 | -0.0217
